# Data: article doi:10.1101/2023.05.23.542025
# Chains of the proteins cited; added tags and fusions are not shown.
# UniProt P45481: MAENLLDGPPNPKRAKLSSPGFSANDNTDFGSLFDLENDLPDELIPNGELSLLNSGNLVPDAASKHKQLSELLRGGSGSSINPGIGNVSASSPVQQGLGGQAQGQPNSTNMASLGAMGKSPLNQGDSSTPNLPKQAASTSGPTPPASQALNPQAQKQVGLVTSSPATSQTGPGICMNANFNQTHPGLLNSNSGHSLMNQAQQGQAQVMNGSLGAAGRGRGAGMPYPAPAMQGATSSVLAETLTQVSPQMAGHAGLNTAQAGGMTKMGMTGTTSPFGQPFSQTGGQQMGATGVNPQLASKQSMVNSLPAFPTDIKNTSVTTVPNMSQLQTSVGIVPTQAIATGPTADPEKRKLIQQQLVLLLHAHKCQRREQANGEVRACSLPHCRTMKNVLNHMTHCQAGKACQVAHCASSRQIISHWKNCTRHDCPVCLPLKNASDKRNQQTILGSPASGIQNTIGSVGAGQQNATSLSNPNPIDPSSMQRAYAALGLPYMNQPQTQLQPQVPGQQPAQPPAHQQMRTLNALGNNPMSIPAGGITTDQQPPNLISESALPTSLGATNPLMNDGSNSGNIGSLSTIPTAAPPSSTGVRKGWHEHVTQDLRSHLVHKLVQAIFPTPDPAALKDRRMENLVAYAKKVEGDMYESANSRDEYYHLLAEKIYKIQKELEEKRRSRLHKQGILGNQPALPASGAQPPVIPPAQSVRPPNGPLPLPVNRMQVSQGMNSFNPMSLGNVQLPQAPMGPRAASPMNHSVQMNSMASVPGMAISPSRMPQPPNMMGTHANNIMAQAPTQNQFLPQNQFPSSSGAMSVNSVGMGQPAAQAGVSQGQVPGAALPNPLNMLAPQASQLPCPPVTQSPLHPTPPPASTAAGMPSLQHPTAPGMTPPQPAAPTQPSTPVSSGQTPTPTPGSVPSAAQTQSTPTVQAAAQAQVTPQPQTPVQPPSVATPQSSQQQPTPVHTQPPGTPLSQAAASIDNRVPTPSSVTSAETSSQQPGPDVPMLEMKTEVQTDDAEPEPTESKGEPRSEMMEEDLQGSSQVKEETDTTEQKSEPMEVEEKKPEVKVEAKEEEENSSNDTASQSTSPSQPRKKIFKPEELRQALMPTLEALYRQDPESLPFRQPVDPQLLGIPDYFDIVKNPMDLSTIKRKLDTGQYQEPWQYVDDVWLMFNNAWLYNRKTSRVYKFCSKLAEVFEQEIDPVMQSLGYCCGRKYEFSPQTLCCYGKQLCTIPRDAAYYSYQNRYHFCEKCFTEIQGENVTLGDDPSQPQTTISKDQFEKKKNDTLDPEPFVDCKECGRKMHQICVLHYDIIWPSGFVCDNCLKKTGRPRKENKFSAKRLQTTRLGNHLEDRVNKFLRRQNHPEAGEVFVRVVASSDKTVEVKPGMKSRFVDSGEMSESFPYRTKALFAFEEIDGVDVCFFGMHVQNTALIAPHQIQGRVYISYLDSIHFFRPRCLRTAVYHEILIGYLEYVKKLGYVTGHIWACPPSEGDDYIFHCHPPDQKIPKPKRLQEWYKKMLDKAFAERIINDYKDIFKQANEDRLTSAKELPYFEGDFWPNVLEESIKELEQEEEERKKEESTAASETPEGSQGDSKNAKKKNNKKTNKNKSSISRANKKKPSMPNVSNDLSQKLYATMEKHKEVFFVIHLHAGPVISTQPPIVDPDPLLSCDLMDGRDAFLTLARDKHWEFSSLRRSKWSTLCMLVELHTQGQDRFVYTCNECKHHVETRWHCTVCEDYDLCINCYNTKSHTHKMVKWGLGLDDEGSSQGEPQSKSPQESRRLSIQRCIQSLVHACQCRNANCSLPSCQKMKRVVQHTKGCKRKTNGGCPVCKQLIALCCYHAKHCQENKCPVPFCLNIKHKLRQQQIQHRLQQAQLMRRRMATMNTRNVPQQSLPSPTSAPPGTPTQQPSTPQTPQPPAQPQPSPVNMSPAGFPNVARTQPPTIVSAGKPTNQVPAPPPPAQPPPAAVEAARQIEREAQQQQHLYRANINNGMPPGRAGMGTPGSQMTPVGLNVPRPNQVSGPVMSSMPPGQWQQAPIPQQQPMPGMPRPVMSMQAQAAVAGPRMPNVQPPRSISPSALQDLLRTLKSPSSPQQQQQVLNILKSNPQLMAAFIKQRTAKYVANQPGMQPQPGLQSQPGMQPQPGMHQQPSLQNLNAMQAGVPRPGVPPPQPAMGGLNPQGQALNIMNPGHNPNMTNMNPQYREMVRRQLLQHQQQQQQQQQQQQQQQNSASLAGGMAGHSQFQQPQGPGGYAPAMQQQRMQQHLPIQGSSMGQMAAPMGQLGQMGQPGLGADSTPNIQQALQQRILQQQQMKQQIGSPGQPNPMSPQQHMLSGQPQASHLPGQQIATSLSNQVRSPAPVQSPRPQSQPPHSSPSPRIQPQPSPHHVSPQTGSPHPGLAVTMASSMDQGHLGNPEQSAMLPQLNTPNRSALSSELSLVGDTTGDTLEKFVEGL
# No constants are given. Whether binding was seen depends on the method and setting. In cells and extracts the contact can be indirect. Some entries that bind do so weakly or less than the wild type. For some of these results: Where a sequence is shown, tags or fusion partners need not be part of it.
# T1: Flag-tagged STAT6 (UniProt P52633)
# T1 sequence: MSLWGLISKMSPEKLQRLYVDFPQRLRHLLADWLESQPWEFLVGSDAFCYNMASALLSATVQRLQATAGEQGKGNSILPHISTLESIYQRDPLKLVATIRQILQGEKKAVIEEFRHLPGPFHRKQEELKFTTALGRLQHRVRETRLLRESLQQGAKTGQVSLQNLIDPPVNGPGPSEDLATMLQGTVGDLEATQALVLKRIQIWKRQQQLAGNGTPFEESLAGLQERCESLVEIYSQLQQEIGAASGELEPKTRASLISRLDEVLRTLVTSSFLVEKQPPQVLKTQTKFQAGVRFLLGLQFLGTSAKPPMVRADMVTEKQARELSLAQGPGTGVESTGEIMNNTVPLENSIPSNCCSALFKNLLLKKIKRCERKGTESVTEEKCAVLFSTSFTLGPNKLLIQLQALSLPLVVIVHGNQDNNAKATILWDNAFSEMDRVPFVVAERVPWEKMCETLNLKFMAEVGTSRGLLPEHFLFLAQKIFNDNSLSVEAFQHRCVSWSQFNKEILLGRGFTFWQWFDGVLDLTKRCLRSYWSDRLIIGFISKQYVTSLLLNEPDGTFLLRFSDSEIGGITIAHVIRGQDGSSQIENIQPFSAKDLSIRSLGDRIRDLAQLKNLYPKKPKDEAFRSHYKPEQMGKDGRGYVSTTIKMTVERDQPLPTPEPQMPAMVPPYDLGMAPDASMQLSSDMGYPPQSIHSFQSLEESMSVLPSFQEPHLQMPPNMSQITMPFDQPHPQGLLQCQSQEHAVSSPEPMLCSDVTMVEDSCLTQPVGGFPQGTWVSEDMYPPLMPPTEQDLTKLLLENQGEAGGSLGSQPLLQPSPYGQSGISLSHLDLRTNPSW
# T2: endogenous STAT6 (mouse (endogenous in VSMCs)) (UniProt P52633)
# T2 sequence: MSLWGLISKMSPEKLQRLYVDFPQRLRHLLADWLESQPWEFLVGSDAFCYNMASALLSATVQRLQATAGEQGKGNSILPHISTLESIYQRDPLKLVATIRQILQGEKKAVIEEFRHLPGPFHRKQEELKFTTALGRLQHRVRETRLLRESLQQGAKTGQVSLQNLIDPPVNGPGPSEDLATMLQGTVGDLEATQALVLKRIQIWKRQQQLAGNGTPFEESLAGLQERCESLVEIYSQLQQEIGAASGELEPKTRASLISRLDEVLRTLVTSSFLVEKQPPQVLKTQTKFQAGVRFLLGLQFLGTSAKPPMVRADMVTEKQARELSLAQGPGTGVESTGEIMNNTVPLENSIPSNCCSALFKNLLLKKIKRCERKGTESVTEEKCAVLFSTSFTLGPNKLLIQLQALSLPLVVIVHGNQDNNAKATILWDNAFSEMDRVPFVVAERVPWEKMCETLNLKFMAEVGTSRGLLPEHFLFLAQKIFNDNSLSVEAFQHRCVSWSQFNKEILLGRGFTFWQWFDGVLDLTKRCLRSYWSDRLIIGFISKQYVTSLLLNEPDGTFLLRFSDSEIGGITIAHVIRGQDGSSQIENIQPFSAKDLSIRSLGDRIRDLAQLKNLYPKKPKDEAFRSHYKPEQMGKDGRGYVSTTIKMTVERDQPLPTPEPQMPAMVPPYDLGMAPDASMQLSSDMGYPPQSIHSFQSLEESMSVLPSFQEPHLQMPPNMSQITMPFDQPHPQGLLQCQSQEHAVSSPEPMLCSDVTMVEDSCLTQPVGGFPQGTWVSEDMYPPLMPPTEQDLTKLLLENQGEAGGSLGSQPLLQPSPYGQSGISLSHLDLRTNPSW
# T3: recombinant glutathione S-transferase (GST)-fused STAT6 protein (UniProt P52633)
# T3 sequence: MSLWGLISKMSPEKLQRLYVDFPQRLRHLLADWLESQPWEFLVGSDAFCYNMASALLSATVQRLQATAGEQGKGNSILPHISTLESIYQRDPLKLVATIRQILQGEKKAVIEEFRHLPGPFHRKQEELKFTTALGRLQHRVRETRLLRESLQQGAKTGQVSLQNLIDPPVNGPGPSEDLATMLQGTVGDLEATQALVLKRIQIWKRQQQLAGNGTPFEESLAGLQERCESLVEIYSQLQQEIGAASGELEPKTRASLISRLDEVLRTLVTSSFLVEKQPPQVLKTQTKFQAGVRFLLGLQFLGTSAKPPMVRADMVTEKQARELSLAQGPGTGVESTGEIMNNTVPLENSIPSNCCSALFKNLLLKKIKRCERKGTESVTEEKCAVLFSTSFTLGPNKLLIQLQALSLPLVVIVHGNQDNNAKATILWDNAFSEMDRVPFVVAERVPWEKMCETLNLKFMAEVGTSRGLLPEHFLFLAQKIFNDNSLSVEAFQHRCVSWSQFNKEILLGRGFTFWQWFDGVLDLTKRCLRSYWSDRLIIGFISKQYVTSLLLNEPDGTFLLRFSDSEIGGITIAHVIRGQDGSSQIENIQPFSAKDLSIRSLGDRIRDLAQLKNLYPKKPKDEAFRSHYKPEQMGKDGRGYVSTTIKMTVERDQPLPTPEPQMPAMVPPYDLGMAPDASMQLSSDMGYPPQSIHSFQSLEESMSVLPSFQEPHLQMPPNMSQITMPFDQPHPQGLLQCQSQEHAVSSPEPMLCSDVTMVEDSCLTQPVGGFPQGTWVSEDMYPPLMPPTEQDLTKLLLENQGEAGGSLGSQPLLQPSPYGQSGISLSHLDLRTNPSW
# Columns and labels:
# Flag-tagged STAT6 = target: T1, Flag-tagged STAT6; test: co-IP
# [1] = target: T2, endogenous STAT6 (mouse (endogenous in VSMCs)); test: co-IP
# [2] = target: T3, recombinant glutathione S-transferase (GST)-fused STAT6 protein; test: pull-down
# HA-CBP = HA-CBP (UniProt P45481); test: co-IP
binding (HA-CBP),Molecule,binding (Flag-tagged STAT6),binding [1],binding [2]
–,cAMP-response element binding protein (CBP) (from UniProt P45481 1-2441),binds,binds,binds
binds,"Flag-tagged STAT6 (protein, UniProt P52633 1-837) MSLWGLISKMSPEKLQRLYVDFPQRLRHLLADWLESQPWEFLVGSDAFCYNMASALLSATVQRLQATAGEQGKGNSILPHISTLESIYQRDPLKLVATIRQILQGEKKAVIEEFRHLPGPFHRKQEELKFTTALGRLQHRVRETRLLRESLQQGAKTGQVSLQNLIDPPVNGPGPSEDLATMLQGTVGDLEATQALVLKRIQIWKRQQQLAGNGTPFEESLAGLQERCESLVEIYSQLQQEIGAASGELEPKTRASLISRLDEVLRTLVTSSFLVEKQPPQVLKTQTKFQAGVRFLLGLQFLGTSAKPPMVRADMVTEKQARELSLAQGPGTGVESTGEIMNNTVPLENSIPSNCCSALFKNLLLKKIKRCERKGTESVTEEKCAVLFSTSFTLGPNKLLIQLQALSLPLVVIVHGNQDNNAKATILWDNAFSEMDRVPFVVAERVPWEKMCETLNLKFMAEVGTSRGLLPEHFLFLAQKIFNDNSLSVEAFQHRCVSWSQFNKEILLGRGFTFWQWFDGVLDLTKRCLRSYWSDRLIIGFISKQYVTSLLLNEPDGTFLLRFSDSEIGGITIAHVIRGQDGSSQIENIQPFSAKDLSIRSLGDRIRDLAQLKNLYPKKPKDEAFRSHYKPEQMGKDGRGYVSTTIKMTVERDQPLPTPEPQMPAMVPPYDLGMAPDASMQLSSDMGYPPQSIHSFQSLEESMSVLPSFQEPHLQMPPNMSQITMPFDQPHPQGLLQCQSQEHAVSSPEPMLCSDVTMVEDSCLTQPVGGFPQGTWVSEDMYPPLMPPTEQDLTKLLLENQGEAGGSLGSQPLLQPSPYGQSGISLSHLDLRTNPSW",–,–,–
